Experimental data taken from the supplement of paper PMC12823440, “Inhibitors supercharge kinase turnover through native proteolytic circuits” (Nature, 2025).
Some of the results follow. The calls rarely recur for the same compound in another form.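 Kinases were expressed as nanoluciferase fusions in K562 cells and luminescence was read every 4 h between 2 and 18 h as percent of control, DMSO set to 100% and a positive control to 0%. A time point counts as decreased when the signal drops significantly (2 sigma). The hit call is the authors' own, does not follow from the count of time points alone, and its rule is not shown.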

Amino acid sequences for entries named in this document (tags omitted). A change or cut given only in a name is not applied to a line headed by its entry.
UniProt Q06187: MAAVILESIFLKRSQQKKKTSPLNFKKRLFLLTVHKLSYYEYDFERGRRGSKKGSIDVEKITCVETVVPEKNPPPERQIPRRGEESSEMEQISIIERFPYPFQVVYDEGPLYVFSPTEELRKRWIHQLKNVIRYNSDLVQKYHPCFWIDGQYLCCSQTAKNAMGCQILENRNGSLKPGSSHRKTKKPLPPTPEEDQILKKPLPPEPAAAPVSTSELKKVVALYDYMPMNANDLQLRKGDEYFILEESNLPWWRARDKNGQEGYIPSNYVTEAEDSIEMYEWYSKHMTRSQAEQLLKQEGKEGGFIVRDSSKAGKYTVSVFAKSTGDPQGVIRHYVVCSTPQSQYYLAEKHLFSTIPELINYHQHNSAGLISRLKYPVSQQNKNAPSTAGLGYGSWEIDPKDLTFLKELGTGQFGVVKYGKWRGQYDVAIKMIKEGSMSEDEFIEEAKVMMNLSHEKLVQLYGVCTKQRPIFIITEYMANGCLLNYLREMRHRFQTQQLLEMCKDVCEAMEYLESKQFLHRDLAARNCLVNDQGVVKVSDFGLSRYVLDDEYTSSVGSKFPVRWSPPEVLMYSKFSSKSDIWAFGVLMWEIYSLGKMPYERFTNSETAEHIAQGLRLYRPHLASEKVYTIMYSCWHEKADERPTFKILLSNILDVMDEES
UniProt Q9UQM7, whole entry: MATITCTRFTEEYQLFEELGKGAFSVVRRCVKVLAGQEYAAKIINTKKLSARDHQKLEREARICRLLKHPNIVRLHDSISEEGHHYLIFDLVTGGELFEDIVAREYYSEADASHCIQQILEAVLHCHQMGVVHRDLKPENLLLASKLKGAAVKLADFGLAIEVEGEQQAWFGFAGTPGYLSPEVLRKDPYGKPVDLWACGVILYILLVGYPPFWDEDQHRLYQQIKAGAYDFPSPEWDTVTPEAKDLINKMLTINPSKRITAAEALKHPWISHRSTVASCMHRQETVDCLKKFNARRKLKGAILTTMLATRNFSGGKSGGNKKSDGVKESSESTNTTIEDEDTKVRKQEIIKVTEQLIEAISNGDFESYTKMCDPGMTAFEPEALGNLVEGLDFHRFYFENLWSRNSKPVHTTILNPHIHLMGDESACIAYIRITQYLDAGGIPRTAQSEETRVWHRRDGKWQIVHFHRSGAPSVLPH
UniProt Q13555: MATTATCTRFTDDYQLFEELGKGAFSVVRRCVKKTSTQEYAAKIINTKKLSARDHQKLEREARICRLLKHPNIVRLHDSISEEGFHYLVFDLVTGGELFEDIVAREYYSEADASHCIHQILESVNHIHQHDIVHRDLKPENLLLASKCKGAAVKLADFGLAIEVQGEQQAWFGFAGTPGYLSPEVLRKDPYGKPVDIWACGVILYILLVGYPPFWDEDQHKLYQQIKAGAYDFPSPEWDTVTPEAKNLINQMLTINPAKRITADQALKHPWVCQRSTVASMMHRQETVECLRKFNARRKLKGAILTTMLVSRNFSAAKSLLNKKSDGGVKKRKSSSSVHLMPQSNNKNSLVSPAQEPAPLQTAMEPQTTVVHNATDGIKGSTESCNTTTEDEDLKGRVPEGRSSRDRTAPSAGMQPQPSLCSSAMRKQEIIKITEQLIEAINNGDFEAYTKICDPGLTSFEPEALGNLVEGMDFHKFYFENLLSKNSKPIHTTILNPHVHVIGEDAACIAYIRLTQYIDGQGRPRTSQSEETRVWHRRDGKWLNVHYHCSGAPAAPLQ
UniProt Q15131: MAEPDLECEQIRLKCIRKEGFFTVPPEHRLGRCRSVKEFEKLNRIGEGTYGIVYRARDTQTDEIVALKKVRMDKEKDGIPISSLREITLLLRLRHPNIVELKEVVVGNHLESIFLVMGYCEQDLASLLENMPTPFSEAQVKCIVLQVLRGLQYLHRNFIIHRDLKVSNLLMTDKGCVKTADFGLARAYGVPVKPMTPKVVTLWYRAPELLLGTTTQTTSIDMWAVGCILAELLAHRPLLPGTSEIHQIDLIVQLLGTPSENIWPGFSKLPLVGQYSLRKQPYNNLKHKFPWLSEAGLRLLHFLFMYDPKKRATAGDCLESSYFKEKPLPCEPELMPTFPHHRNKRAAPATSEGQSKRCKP
UniProt Q00526: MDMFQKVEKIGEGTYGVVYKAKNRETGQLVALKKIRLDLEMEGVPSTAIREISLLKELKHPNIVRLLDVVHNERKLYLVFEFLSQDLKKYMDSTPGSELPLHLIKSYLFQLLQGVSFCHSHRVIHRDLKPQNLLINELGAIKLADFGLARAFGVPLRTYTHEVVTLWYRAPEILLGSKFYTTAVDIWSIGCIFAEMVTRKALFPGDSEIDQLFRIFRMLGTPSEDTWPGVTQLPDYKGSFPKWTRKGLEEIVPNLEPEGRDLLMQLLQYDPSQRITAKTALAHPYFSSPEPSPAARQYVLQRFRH
UniProt P11802: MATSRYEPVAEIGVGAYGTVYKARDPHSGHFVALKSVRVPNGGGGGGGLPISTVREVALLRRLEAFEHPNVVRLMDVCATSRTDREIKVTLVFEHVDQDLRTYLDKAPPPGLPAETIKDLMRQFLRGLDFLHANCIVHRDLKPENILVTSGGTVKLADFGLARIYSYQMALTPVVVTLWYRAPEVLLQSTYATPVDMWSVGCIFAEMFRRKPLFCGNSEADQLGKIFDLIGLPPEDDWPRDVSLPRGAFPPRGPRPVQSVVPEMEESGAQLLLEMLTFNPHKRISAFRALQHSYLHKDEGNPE
UniProt Q00535, whole entry, looked up: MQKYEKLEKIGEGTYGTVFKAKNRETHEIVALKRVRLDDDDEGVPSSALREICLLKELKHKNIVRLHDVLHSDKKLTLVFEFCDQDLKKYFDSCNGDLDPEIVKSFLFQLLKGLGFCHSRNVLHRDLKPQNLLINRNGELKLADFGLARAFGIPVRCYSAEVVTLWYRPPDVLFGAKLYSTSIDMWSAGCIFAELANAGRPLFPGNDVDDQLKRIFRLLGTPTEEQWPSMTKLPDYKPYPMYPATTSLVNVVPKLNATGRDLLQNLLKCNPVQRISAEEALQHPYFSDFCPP
UniProt P50750, whole entry: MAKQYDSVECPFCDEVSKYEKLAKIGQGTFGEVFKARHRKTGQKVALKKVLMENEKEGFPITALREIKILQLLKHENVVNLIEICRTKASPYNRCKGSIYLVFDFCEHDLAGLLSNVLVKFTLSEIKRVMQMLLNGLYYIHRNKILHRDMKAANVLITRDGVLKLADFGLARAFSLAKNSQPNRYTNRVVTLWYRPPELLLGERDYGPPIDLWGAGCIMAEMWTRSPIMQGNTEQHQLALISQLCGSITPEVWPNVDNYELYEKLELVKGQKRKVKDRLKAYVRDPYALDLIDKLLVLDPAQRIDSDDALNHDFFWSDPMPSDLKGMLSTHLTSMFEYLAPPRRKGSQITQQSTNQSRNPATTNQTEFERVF
UniProt O96017, whole entry: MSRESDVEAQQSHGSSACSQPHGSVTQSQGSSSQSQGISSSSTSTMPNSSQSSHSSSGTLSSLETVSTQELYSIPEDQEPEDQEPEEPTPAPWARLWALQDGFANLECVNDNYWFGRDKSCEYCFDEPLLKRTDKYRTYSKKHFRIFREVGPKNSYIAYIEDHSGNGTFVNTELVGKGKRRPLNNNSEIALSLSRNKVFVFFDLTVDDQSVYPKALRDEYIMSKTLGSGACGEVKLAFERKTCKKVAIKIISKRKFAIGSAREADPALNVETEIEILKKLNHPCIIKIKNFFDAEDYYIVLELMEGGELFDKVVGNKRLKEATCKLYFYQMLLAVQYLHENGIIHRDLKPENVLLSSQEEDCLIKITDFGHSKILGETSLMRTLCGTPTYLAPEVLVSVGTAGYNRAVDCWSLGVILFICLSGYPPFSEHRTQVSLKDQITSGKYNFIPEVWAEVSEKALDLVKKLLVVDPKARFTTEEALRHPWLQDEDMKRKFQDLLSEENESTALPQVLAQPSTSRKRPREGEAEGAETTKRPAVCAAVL
UniProt P41240: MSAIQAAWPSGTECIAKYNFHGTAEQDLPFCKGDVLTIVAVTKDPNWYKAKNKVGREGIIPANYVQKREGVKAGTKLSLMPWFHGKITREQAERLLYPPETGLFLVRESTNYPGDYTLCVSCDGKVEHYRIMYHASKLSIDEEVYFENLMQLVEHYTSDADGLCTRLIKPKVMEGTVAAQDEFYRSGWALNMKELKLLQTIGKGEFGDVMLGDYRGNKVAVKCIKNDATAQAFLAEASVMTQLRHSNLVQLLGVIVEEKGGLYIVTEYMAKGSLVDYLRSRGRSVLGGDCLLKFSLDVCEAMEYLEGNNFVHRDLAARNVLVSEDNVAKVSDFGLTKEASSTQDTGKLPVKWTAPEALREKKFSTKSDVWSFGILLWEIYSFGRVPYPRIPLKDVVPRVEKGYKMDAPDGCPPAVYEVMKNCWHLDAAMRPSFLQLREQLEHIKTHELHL
UniProt P48729: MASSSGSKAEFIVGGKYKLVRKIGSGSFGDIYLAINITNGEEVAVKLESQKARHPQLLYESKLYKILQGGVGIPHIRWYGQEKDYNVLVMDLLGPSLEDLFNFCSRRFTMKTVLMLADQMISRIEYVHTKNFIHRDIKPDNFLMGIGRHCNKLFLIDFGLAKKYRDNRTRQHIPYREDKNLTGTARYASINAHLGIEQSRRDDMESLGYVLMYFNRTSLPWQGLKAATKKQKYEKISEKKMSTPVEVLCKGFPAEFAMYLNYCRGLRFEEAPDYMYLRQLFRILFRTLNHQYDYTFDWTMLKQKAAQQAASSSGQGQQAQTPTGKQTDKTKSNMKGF
UniProt P48730: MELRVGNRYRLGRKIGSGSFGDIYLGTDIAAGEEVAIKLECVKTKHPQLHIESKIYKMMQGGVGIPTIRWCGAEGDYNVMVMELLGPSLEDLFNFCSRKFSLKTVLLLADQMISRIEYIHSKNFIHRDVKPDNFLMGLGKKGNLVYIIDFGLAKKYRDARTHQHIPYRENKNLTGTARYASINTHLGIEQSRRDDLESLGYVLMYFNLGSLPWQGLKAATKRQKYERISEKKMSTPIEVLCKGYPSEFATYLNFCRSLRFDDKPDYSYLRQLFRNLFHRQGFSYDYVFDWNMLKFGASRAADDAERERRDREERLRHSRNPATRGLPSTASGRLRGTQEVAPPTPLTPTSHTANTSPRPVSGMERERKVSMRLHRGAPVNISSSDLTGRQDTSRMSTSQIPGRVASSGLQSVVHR
UniProt Q08345: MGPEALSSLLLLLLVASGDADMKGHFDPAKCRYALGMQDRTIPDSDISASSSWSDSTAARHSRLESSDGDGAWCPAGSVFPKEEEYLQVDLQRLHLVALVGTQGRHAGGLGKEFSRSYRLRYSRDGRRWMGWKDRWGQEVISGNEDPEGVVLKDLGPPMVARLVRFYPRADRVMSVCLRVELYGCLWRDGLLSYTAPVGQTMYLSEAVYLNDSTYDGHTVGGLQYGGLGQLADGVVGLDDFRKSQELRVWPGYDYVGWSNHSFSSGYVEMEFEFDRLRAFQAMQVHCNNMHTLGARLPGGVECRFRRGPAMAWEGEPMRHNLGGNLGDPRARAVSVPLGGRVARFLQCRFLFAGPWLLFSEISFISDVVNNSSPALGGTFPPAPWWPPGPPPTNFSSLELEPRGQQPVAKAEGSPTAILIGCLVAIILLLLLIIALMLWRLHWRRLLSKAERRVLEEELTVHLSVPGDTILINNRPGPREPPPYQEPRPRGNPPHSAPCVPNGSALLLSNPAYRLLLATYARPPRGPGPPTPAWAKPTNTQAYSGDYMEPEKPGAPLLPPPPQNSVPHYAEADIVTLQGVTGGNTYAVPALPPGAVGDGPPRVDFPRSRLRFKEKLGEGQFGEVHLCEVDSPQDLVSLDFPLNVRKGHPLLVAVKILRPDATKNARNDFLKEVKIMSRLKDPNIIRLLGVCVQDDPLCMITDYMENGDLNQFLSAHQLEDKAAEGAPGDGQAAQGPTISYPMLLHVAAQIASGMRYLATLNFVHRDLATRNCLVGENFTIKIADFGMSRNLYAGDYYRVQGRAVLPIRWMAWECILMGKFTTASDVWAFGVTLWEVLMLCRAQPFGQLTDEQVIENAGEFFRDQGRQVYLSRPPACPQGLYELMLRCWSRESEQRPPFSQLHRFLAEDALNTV
UniProt Q92630: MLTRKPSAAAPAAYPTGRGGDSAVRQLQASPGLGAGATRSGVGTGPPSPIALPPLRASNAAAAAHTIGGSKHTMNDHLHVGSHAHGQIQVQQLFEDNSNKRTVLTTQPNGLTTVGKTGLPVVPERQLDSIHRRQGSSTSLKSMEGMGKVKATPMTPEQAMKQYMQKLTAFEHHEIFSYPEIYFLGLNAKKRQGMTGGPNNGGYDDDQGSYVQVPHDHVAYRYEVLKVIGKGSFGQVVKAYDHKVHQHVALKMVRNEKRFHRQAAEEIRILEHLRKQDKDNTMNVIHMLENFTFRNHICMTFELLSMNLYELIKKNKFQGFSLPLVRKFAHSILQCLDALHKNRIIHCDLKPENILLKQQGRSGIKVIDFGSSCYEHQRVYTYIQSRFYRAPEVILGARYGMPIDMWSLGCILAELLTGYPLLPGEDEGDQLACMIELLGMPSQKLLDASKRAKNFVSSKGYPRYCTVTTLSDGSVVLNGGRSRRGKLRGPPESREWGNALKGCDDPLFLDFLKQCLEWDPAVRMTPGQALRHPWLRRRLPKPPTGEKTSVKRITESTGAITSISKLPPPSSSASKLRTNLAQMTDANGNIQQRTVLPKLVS

Legend:
Test in all cases: kinase-Nluc reporter destabilization hit call (1 = scored as downregulated) (binary); higher = compound decreases kinase abundance
Details in all cases: K562; 2-18 h
BRAF_V600E = system: BRAF_V600E
BTK = BTK (UniProt Q06187)
CAMK2A = CAMK2A (UniProt Q9UQM7)
CAMK2G = CAMK2G (UniProt Q13555)
CDK10 = CDK10 (UniProt Q15131)
CDK2 = CDK2 (UniProt P24941)
CDK3 = CDK3 (UniProt Q00526)
CDK4 = CDK4 (UniProt P11802)
CDK5 = CDK5 (UniProt Q00535)
CDK6 = CDK6 (UniProt Q00534)
CDK7 = CDK7 (UniProt P50613)
CDK9 = CDK9 (UniProt P50750)
CHEK2 = CHEK2 (UniProt O96017)
CSF1R = CSF1R (UniProt P07333)
CSK = CSK (UniProt P41240)
CSNK1A1 = CSNK1A1 (UniProt P48729)
CSNK1D = CSNK1D (UniProt P48730)
DDR1 = DDR1 (UniProt Q08345)
DYRK1B = DYRK1B (UniProt Q9Y463)
DYRK2 = DYRK2 (UniProt Q92630)

Measured: kinase-Nluc reporter destabilization hit call

CCc1cncnc1N1CCN(Cc2nc3ccc(C(F)(F)F)cc3[nH]2)CC1 (10 µM)
inactive: BRAF_V600E 0 | BTK 0 | CAMK2A 0 | CAMK2G 0 | CDK10 = 0 | CDK2 = 0 | CDK3 = 0 | CDK4 = 0 | CDK5 = 0 | CDK6 = 0 | CDK7 = 0 | CDK9 = 0 | CHEK2 = 0 | CSF1R 0 | CSK 0 | CSNK1A1 = 0 | CSNK1D 0 | DDR1 = 0 | DYRK1B 0 | DYRK2 = 0

Cc1ccn2c(C(=O)C(=O)c3ccccc3)c(-c3ccccc3)nc2c1 (10 µM)
inactive: BRAF_V600E 0 | BTK 0 | CAMK2A 0 | CAMK2G 0 | CDK10 = 0 | CDK2 = 0 | CDK3 = 0 | CDK4 = 0 | CDK5 = 0 | CDK6 = 0 | CDK7 = 0 | CDK9 = 0 | CHEK2 = 0 | CSF1R 0 | CSK 0 | CSNK1A1 = 0 | CSNK1D 0 | DDR1 = 0 | DYRK1B 0 | DYRK2 = 0

CCc1cccc(CC)c1NC(=O)N1Cc2[nH]nc(NC(=O)c3ccc(N4CCN(C)CC4)cc3)c2C1 (2.5 µM)
inactive: BRAF_V600E 0 | BTK 0 | CAMK2A 0 | CAMK2G 0 | CDK10 = 0 | CDK2 = 0 | CDK3 = 0 | CDK4 = 0 | CDK5 = 0 | CDK6 = 0 | CDK7 = 0 | CDK9 = 0 | CHEK2 = 0 | CSF1R 0 | CSK 0 | CSNK1A1 = 0 | CSNK1D 0 | DDR1 = 0 | DYRK1B 0 | DYRK2 = 0

CNC(=O)c1ccccc1Nc1nc(Nc2ccc3c(c2OC)CCC[C@H](N2CCN(CCO)CC2)C3)ncc1Cl (10 µM)
inactive: BRAF_V600E 0 | BTK 0 | CAMK2A 0 | CAMK2G 0 | CDK10 = 0 | CDK2 = 0 | CDK3 = 0 | CDK4 = 0 | CDK5 = 0 | CDK6 = 0 | CDK7 = 0 | CDK9 = 0 | CHEK2 = 0 | CSF1R 0 | CSK 0 | CSNK1A1 = 0 | CSNK1D 0 | DDR1 = 0 | DYRK1B 0 | DYRK2 = 0

Oc1ccc(/C=C/c2cc(O)cc(F)c2)cc1 [Resveratrol analog 1] (10 µM)
inactive: BRAF_V600E 0 | BTK 0 | CAMK2A 0 | CAMK2G 0 | CDK10 = 0 | CDK2 = 0 | CDK3 = 0 | CDK4 = 0 | CDK5 = 0 | CDK6 = 0 | CDK7 = 0 | CDK9 = 0 | CHEK2 = 0 | CSF1R 0 | CSK 0 | CSNK1A1 = 0 | CSNK1D 0 | DDR1 = 0 | DYRK1B 0 | DYRK2 = 0

COc1ncccc1-c1cnn2ccc(N3CCN(C(=O)OC(C)C)CC3)nc12 (10 µM)
inactive: BRAF_V600E 0 | BTK 0 | CAMK2A 0 | CAMK2G 0 | CDK10 = 0 | CDK2 = 0 | CDK3 = 0 | CDK4 = 0 | CDK5 = 0 | CDK6 = 0 | CDK7 = 0 | CDK9 = 0 | CHEK2 = 0 | CSF1R 0 | CSK 0 | CSNK1A1 = 0 | CSNK1D 0 | DDR1 = 0 | DYRK1B 0 | DYRK2 = 0

O=Nc1c2[nH]c3ccccc3nc-2c2ccccc12 [IQ-1S (free acid)] (2.5 µM)
inactive: BRAF_V600E 0 | BTK 0 | CAMK2A 0 | CAMK2G 0 | CDK10 = 0 | CDK2 = 0 | CDK3 = 0 | CDK4 = 0 | CDK5 = 0 | CDK6 = 0 | CDK7 = 0 | CDK9 = 0 | CHEK2 = 0 | CSF1R 0 | CSK 0 | CSNK1A1 = 0 | CSNK1D 0 | DDR1 = 0 | DYRK1B 0 | DYRK2 = 0

C#Cc1cccc(Nc2ncnc3cc(OC)c(OCCCCCCC(=O)NO)cc23)c1 (2.5 µM)
inactive: BRAF_V600E 0 | BTK 0 | CAMK2A 0 | CAMK2G 0 | CDK10 = 0 | CDK2 = 0 | CDK3 = 0 | CDK4 = 0 | CDK5 = 0 | CDK6 = 0 | CDK7 = 0 | CDK9 = 0 | CHEK2 = 0 | CSF1R 0 | CSK 0 | CSNK1A1 = 0 | CSNK1D 0 | DDR1 = 0 | DYRK1B 0 | DYRK2 = 0

Pulled one by one from the entries so far (2):
CCc1cncnc1N1CCN(Cc2nc3ccc(C(F)(F)F)cc3[nH]2)CC1 (10 µM)
inactive: BRAF_V600E 0 | BTK 0 | CAMK2A 0 | CAMK2G 0 | CDK10 = 0 | CDK2 = 0 | CDK3 = 0 | CDK4 = 0 | CDK5 = 0 | CDK6 = 0 | CDK7 = 0 | CDK9 = 0 | CHEK2 = 0 | CSF1R 0 | CSK 0 | CSNK1A1 = 0 | CSNK1D 0 | DDR1 = 0 | DYRK1B 0 | DYRK2 = 0

CCc1cccc(CC)c1NC(=O)N1Cc2[nH]nc(NC(=O)c3ccc(N4CCN(C)CC4)cc3)c2C1 (2.5 µM)
inactive: BRAF_V600E 0 | BTK 0 | CAMK2A 0 | CAMK2G 0 | CDK10 = 0 | CDK2 = 0 | CDK3 = 0 | CDK4 = 0 | CDK5 = 0 | CDK6 = 0 | CDK7 = 0 | CDK9 = 0 | CHEK2 = 0 | CSF1R 0 | CSK 0 | CSNK1A1 = 0 | CSNK1D 0 | DDR1 = 0 | DYRK1B 0 | DYRK2 = 0

Further records:

O=C1O[C@H]([C@@H](O)CO)C(O)=C1OP(=O)(O)O [2-Phospho-L-ascorbic acid (trisodium)] (10 µM)
inactive: BRAF_V600E 0 | BTK 0 | CAMK2A 0 | CAMK2G 0 | CDK10 = 0 | CDK2 = 0 | CDK3 = 0 | CDK4 = 0 | CDK5 = 0 | CDK6 = 0 | CDK7 = 0 | CDK9 = 0 | CHEK2 = 0 | CSF1R 0 | CSK 0 | CSNK1A1 = 0 | CSNK1D 0 | DDR1 = 0 | DYRK1B 0 | DYRK2 = 0

O=C(O)c1cccc(CN2C(=O)/C(=C(\c3ccccc3)c3ccc(Cl)cc3)c3ccccc32)c1 (2.5 µM)
inactive: BRAF_V600E 0 | BTK 0 | CAMK2A 0 | CAMK2G 0 | CDK10 = 0 | CDK2 = 0 | CDK3 = 0 | CDK4 = 0 | CDK5 = 0 | CDK6 = 0 | CDK7 = 0 | CDK9 = 0 | CHEK2 = 0 | CSF1R 0 | CSK 0 | CSNK1A1 = 0 | CSNK1D 0 | DDR1 = 0 | DYRK1B 0 | DYRK2 = 0

CNc1nc(Nc2cn(C(C)(C)C#N)nc2C)ncc1C(F)(F)F (10 µM)
inactive: BRAF_V600E 0 | BTK 0 | CAMK2A 0 | CAMK2G 0 | CDK10 = 0 | CDK2 = 0 | CDK3 = 0 | CDK4 = 0 | CDK5 = 0 | CDK6 = 0 | CDK7 = 0 | CDK9 = 0 | CHEK2 = 0 | CSF1R 0 | CSK 0 | CSNK1A1 = 0 | CSNK1D 0 | DDR1 = 0 | DYRK1B 0 | DYRK2 = 0

CC(C)c1cccc(C(C)C)c1N1C(=O)c2ccc(N)cc2C1=O (2.5 µM)
inactive: BRAF_V600E 0 | BTK 0 | CAMK2A 0 | CAMK2G 0 | CDK10 = 0 | CDK2 = 0 | CDK3 = 0 | CDK4 = 0 | CDK5 = 0 | CDK6 = 0 | CDK7 = 0 | CDK9 = 0 | CHEK2 = 0 | CSF1R 0 | CSK 0 | CSNK1A1 = 0 | CSNK1D 0 | DDR1 = 0 | DYRK1B 0 | DYRK2 = 0

CC(C)=CC(=O)O[C@H]1Cc2cc3ccc(=O)oc3cc2OC1(C)C [Decursin] (10 µM)
inactive: BRAF_V600E 0 | BTK 0 | CAMK2A 0 | CAMK2G 0 | CDK10 = 0 | CDK2 = 0 | CDK3 = 0 | CDK4 = 0 | CDK5 = 0 | CDK6 = 0 | CDK7 = 0 | CDK9 = 0 | CHEK2 = 0 | CSF1R 0 | CSK 0 | CSNK1A1 = 0 | CSNK1D 0 | DDR1 = 0 | DYRK1B 0 | DYRK2 = 0

COc1ccc2cc3[n+](cc2c1OC)CCc1cc(O)c(O)cc1-3 [Demethyleneberberine] (10 µM)
inactive: BRAF_V600E 0 | BTK 0 | CAMK2A 0 | CAMK2G 0 | CDK10 = 0 | CDK2 = 0 | CDK3 = 0 | CDK4 = 0 | CDK5 = 0 | CDK6 = 0 | CDK7 = 0 | CDK9 = 0 | CHEK2 = 0 | CSF1R 0 | CSK 0 | CSNK1A1 = 0 | CSNK1D 0 | DDR1 = 0 | DYRK1B 0 | DYRK2 = 0

Cc1ccc(Oc2nc3cc(-c4ccc(-c5ccccc5)cc4)c(Cl)cc3[nH]2)cc1C(=O)O (10 µM)
inactive: BRAF_V600E 0 | BTK 0 | CAMK2A 0 | CAMK2G 0 | CDK10 = 0 | CDK2 = 0 | CDK3 = 0 | CDK4 = 0 | CDK5 = 0 | CDK6 = 0 | CDK7 = 0 | CDK9 = 0 | CHEK2 = 0 | CSF1R 0 | CSK 0 | CSNK1A1 = 0 | CSNK1D 0 | DDR1 = 0 | DYRK1B 0 | DYRK2 = 0

Cc1cccc2c3c(ccc12)C(=O)C1=C(OCC1C)C3=O (stereo not given) [Dihydroisotanshinone I] (2.5 µM)
inactive: BRAF_V600E 0 | BTK 0 | CAMK2A 0 | CAMK2G 0 | CDK10 = 0 | CDK2 = 0 | CDK3 = 0 | CDK4 = 0 | CDK5 = 0 | CDK6 = 0 | CDK7 = 0 | CDK9 = 0 | CHEK2 = 0 | CSF1R 0 | CSK 0 | CSNK1A1 = 0 | CSNK1D 0 | DDR1 = 0 | DYRK1B 0 | DYRK2 = 0
